The other results are listed elsewhere or left out.

This assay has as its target T1, OsSMF1 (Oryza sativa, UniProt Q6ZLB0 1-436).
T1 sequence: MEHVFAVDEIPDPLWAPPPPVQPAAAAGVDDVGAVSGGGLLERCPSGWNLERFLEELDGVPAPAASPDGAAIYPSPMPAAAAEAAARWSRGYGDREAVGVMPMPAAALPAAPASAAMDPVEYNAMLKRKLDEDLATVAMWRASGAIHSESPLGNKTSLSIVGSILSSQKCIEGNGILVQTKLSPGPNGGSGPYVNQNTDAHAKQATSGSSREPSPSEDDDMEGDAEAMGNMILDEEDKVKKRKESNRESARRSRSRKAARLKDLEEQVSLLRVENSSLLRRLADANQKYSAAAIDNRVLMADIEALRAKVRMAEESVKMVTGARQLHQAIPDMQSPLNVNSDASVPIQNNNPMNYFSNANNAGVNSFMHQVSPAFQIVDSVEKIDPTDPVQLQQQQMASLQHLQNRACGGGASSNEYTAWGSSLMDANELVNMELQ
The assay can be described thus: protein-binding microarray (RPBM); PBS, 2% BSA, 51.3 ng/ul salmon testes DNA, 50 uM zinc acetate, 200 nM TF, 25 C, 1 h; high values mean tight binding. The following applies: protein: recombinant; tags: N-terminal polyhistidine and DsRed monomer fusion (pET32a); chain copies: 2; label: CyDye5-dUTP incorporated in the synthesized complementary strand; 3' TTTTT single-stranded linker to array surface; dsDNA, one strand shown. A digest of the protocol:
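The binding signal is fluorescence intensity per array feature (arbitrary units). Readings came from an Axon 4000B scanner after a washed, 2% BSA-blocked, double-stranded custom Agilent array had been incubated for 1 h at 25 °C with 200 nM protein and 50 µM zinc acetate. The protein was a Ni–NTA-purified transcription factor fused N-terminally to polyhistidine and DsRed, expressed in E. coli BL21-CodonPlus.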
“ATCTCCATCTGGCGAGCAGAGGCCGGGGAGGGAGGGGCGCCGGAGTCACCTAGTGCAG”: the binding signal is 3870 fluorescence intensity (a.u.). In the case of “GGGTCCTATGCTGACTCAGCAGCCACGTAGGATAAAACCGCGGAGTCACCTAGTGCAG”, the binding signal is 32800 fluorescence intensity (a.u.). For “TCTCCGAAACATTACGTGGTATGCATGTTAGAGCAGGTACCGGAGTCACCTAGTGCAG” the value was 4120 fluorescence intensity (a.u.); for “CCTCAAGGACAAATGATTGATTTACCTATTCAAAGCAATTCGGAGTCACCTAGTGCAG”, 23300 fluorescence intensity (a.u.); for “CACGTTCGCCGTAACCACGTCAGGCCGCCTCTCCTCAGCGCGGAGTCACCTAGTGCAG”, 11800 fluorescence intensity (a.u.).

For the sequence “AGTAACCAAACCAGATAGTTAGAAAATCCTGCAACTCTGCCGGAGTCACCTAGTGCAG”, the binding signal is 7700 fluorescence intensity (a.u.). Turning to “ATATGTATGTATATATATAGATACGTATATGTGTATATATCGGAGTCACCTAGTGCAG”, the binding signal is 3570 fluorescence intensity (a.u.).

“GAACACGGCCACGGTGGTGACCATGATGGCACCCGGCAACCGGAGTCACCTAGTGCAG”: the binding signal is 3310 fluorescence intensity (a.u.).

As to “TGCGGATCGAGCCAAAAGACACTTTGCTCCAGTCACGAAGCGGAGTCACCTAGTGCAG”, the binding signal was 3320 fluorescence intensity (a.u.). For “CCCCACCGTCTCATCCCAGCTCAGCTCAGCTCTGCCTCCGCGGAGTCACCTAGTGCAG” the value was 3540 fluorescence intensity (a.u.); for “ACCATCCGAGCTGTCAAGATCCGACGTGGGTTGTGAAGGCCGGAGTCACCTAGTGCAG”, 8700 fluorescence intensity (a.u.); for “CTAGCAACGCGCGATTCCCGCACTGCCGCGGCATCATCTGCGGAGTCACCTAGTGCAG”, 3460 fluorescence intensity (a.u.). For “AGAGGAAGTTGACAACATGTCACGCGTCAGCGACACGATGCGGAGTCACCTAGTGCAG” the value was 5240 fluorescence intensity (a.u.); for “TTTCTCACCTACTACTTTCGCTGGCCGGTTATACGAAACACGGAGTCACCTAGTGCAG”, 3510 fluorescence intensity (a.u.); for “GCTGTGAGCTTGTGACTACTATTTGTCATTGTTTTAAAACCGGAGTCACCTAGTGCAG”, 3670 fluorescence intensity (a.u.). In the case of “TAGTCAATGAAGCCACATAGGCACCACATCAACCAAAACCCGGAGTCACCTAGTGCAG”, the binding signal is 6580 fluorescence intensity (a.u.). Turning to “AGAGAGAGAGAGAGAGGATCTAATAGTCCGTCCGCGTTGGCGGAGTCACCTAGTGCAG”, the binding signal is 3610 fluorescence intensity (a.u.).

As for “CCTACTCCCAAACAATCACGCTGACTCATGCAACCTCCATCGGAGTCACCTAGTGCAG”, the binding signal is 14400 fluorescence intensity (a.u.). For “CAGCAACGCTTATTCAGTAGTATCGTGCTGTACTGCTGTCCGGAGTCACCTAGTGCAG” the value was 3630 fluorescence intensity (a.u.); for “CCCCACCAGTATAGAAGTGTTTAGTCACACTGAAGTTTGGCGGAGTCACCTAGTGCAG”, 3170 fluorescence intensity (a.u.). For “CTCCTCCTCCCGCCGCCGCGTCCTCTACGTCGCGGCCGCCCGGAGTCACCTAGTGCAG” the value was 3860 fluorescence intensity (a.u.); for “TCTAGAGGAAGGAAGAGTGACGCTGCAGCGGTGTGCCTTACGGAGTCACCTAGTGCAG”, 5730 fluorescence intensity (a.u.). For “ACACGTAAAAGCTTTACACGTCGCTATGTTAGAACAGAGTCGGAGTCACCTAGTGCAG” the value was 4590 fluorescence intensity (a.u.); for “AGCCTTACCCAGCAAATTTCCCGCCTTCGTCACCGGGAGACGGAGTCACCTAGTGCAG”, 3250 fluorescence intensity (a.u.). Regarding “TCACATCCACATCATCATGGTCTAACAGAATCCATCCAGACGGAGTCACCTAGTGCAG”, the binding signal was 7590 fluorescence intensity (a.u.). As for “AGGAGCGGGGAGAGTGTCGCGGTGTTGTCAGGGTGAGGGGCGGAGTCACCTAGTGCAG”, the binding signal is 3580 fluorescence intensity (a.u.).

For the sequence “AGAACACCGCCGAGGCCACGTACGCGTTGGATTCGTCGTCCGGAGTCACCTAGTGCAG”, the binding signal was 10100 fluorescence intensity (a.u.).

As for “GCCAATTACAAATTCAACACCTAAATTTAAGCAAACACATCGGAGTCACCTAGTGCAG”, the binding signal is 3680 fluorescence intensity (a.u.). In the case of “TCTCTTCTCTTCTTCCGCGACACGTCTTCGCCGCCGCCGCCGGAGTCACCTAGTGCAG” it was 6770 fluorescence intensity (a.u.); in that of “GACGTGCGACGCGCCACGTCCGTCTTGACGTCGCAAGACCCGGAGTCACCTAGTGCAG”, 7660 fluorescence intensity (a.u.); in that of “AGGATTAGGAAAGACCCACAGGATCTCATCATCTACACCACGGAGTCACCTAGTGCAG”, 12000 fluorescence intensity (a.u.). In the case of “CGCAAACCATGGTGGCTTGCTCCCCGCATTGGACACCGCCCGGAGTCACCTAGTGCAG” it was 25800 fluorescence intensity (a.u.); in that of “CTCGCGTCGCCACGCAACTTAATTAATTTAGCCCCTAATTCGGAGTCACCTAGTGCAG”, 3640 fluorescence intensity (a.u.). For “TGTGTTCCTTGGTTACTTGGAAAATGGTAACCCAGTTGCTCGGAGTCACCTAGTGCAG” the value was 4720 fluorescence intensity (a.u.).

As to “GCTCTCGCTGACGCTGCCGCTCCGCCTGCCTCCGCCCGCGCGGAGTCACCTAGTGCAG”, the binding signal is 3900 fluorescence intensity (a.u.).

In the case of “CGGCGACTTCACACGCGGCAGGCAATCTTCAGGCGGTCAGCGGAGTCACCTAGTGCAG”, the binding signal was 3730 fluorescence intensity (a.u.).

As for “CTGACATATGTCAGCATATATACTCACTAACCTATCATAGCGGAGTCACCTAGTGCAG”, the binding signal is 3350 fluorescence intensity (a.u.). For “AGCAAATGATGGGCTTTCATGGCTGCTTCCATGGACGTGGCGGAGTCACCTAGTGCAG” the value was 3990 fluorescence intensity (a.u.); for “TTGCTCGTGTCTCTGTCCGGATATGGGCCTCACGTGGCGGCGGAGTCACCTAGTGCAG”, 5260 fluorescence intensity (a.u.); for “TATACAAGTCAGCTGCTGCTCGATCTTGTCATGAGAGCCCCGGAGTCACCTAGTGCAG”, 5140 fluorescence intensity (a.u.). As to “ATTCTAAGTCCCTGTCACATCGGATGTTTGGCACTAATTTCGGAGTCACCTAGTGCAG”, the binding signal is 4220 fluorescence intensity (a.u.). Regarding “TGTGATTGTATTGGTTACTAGAGTAGTATTTAGTAGAGATCGGAGTCACCTAGTGCAG”, the binding signal is 42200 fluorescence intensity (a.u.).

Values taken from publication PMC7819943, “Rice protein-binding microarrays: a tool to detect cis-acting elements near promoter regions in rice”.
